# Counter-ions that a name gives are not always drawn. The list shows a part of the results. Most values come without repeats; read them as rough.
# Experiments:
# [1] = tested on: Saos-2; test: cell viability (CCK-8) relative to DMSO control (% of control); higher = less cytotoxic; conditions: 10 µM; 48 h
# [2] = tested on: U2OS; test: as above; conditions: 10 µM; 48 h
Compound,cell viability [1],cell viability [2]
CCC[C@H](N[C@@H](C)C(=O)N1[C@H](C(=O)O)C[C@@H]2CCCC[C@@H]21)C(=O)OCC [Perindopril Erbumine],95.3,101
Nc1ccn([C@H]2CC[C@@H](CO)O2)c(=O)n1 [Zalcitabine],69,107
OCc1cc(C(O)CNCCCCCCOCCCCc2ccccc2)ccc1O (stereo unspecified) [Salmeterol],60.2,123
CCN(CC)CC(=O)Nc1c(C)cccc1C [Lidocaine . hydrochloride . hydrate],63.8,105
CCC[C@@H]1C[C@@H](C(=O)N[C@@H]([C@H]2O[C@H](SC)[C@H](O)[C@@H](O)[C@H]2O)[C@@H](C)O)N(C)C1 [Lincomycin],65.4,92.1
N[C@@H](CC(=O)N1CCn2c(nnc2C(F)(F)F)C1)Cc1cc(F)c(F)cc1F [Sitagliptin Phosphate],107,105
CC(C)(C)NC(=O)[C@@H]1C[C@@H]2CCCC[C@@H]2CN1C[C@@H](O)[C@H](Cc1ccccc1)NC(=O)[C@H](CC(N)=O)NC(=O)c1ccc2ccccc2n1 [Saquinavir Mesylate],108,93.6
CN(CCOc1ccc(NS(C)(=O)=O)cc1)CCc1ccc(NS(C)(=O)=O)cc1 [Dofetilide],57.2,115
CC(C)(C)NC(=O)[C@H]1CC[C@H]2[C@@H]3CC[C@H]4NC(=O)C=C[C@]4(C)[C@H]3CC[C@]12C [Finasteride],70.9,101
O=C1CN(/N=C/c2ccc([N+](=O)[O-])o2)C(=O)N1 [Nitrofurantoin],105,86.1
O=C(c1ccc(OCCN2CCCCC2)cc1)c1c(-c2ccc(O)cc2)sc2cc(O)ccc12 [Raloxifene·HCl],55.4,105
CCCN[C@H]1CCc2nc(N)sc2C1 [Pramipexole Dihydrochloride Monohydrate],60.2,114
C[C@H]1O[C@H](O[C@H]2[C@H](O)[C@@H](O)[C@@H](O[C@H]3[C@H](O)[C@@H](O)C(O)O[C@@H]3CO)O[C@@H]2CO)[C@H](O)[C@@H](O)[C@@H]1N[C@H]1C=C(CO)[C@@H](O)[C@H](O)[C@H]1O (stereo partly specified) [Acarbose],94.9,82.8
NCCC(O)(P(=O)(O)O)P(=O)(O)O [Pamidronate Disodium  Pentahydrate (Pamidronic Acid)],59.9,107
CCCN1CCCC[C@H]1C(=O)Nc1c(C)cccc1C [Ropivacaine·HCl Monohydrate],108,96.6
CC(=O)Oc1ccc(C(c2ccc(OC(C)=O)cc2)c2ccccn2)cc1 [Bisacodyl],68.5,103
CO/N=C(\C(=O)N[C@@H]1C(=O)N2C(C(=O)O)=C(COC(N)=O)CS[C@H]12)c1ccco1 [Cefuroxime·Na],103,75.3
CC[C@H](C)C(=O)O[C@H]1C[C@@H](C)C=C2C=C[C@H](C)[C@H](CC[C@@H]3C[C@@H](O)CC(=O)O3)[C@H]21 [Lovastatin],56.9,102
Cc1cc(NS(=O)(=O)c2ccc(N)cc2)no1 [Sulfamethoxazole],110,92.4
Nc1ccc(C(=O)O)c(O)c1 [4-Aminosalicylic Acid],65.1,110
CC(N)C12CC3CC(CC(C3)C1)C2 (stereo unspecified) [Rimantadine·HCl],65.9,115
O=C1CCc2cc(OCCCCc3nnnn3C3CCCCC3)ccc2N1 [Cilostazol],94.8,93.3
CO[C@@]1(NC(=O)C2SC(=C(C(N)=O)C(=O)O)S2)C(=O)N2C(C(=O)O)=C(CSc3nnnn3C)CS[C@@H]21 (stereo partly specified) [Cefotetan Disodium],110,68.9
Cn1c(=O)c2c(ncn2CC(O)CO)n(C)c1=O (stereo unspecified) [Dyphylline],118,56.1
CN(C)c1nc(N(C)C)nc(N(C)C)n1 [Altretamine],62,110
C[C@]12CC[C@@H]3c4ccc(O)cc4CC[C@H]3[C@@H]1CCC2=O [Estrone],66.2,110
Nc1nc2[nH]cc(CCc3ccc(C(=O)N[C@@H](CCC(=O)O)C(=O)O)cc3)c2c(=O)[nH]1 [Pemetrexed Disodium],107,105
CC(C)(C(=O)O)c1ccc(C(O)CCCN2CCC(C(O)(c3ccccc3)c3ccccc3)CC2)cc1 (stereo unspecified) [Fexofenadine·HCl],101,93.2

# Look-ups from above:
# Under cell viability [2], CO[C@@]1(NC(=O)C2SC(=C(C(N)=O)C(=O)O)S2)C(=O)N2C(C(=O)O)=C(CSc3nnnn3C)CS[C@@H]21 (stereo partly specified) [Cefotetan Disodium] shows 68.9
# Under cell viability [1], CCC[C@H](N[C@@H](C)C(=O)N1[C@H](C(=O)O)C[C@@H]2CCCC[C@@H]21)C(=O)OCC [Perindopril Erbumine] shows 95.3

# From the supplement of paper PMC9433722
